No constants are given. Whether binding was seen depends on the method and setting.
Target: cyclin E (mouse, endogenous) (mouse)
Assay: immunoprecipitates from cell lysates blotted with anti-ARF-p19; Sf9 baculovirus reconstruction also gave no convincing evidence

B1: ARF-p19 (mouse, full-length 169 amino acid protein) (protein)
chain: MGRRFLVTVRIQRAGRPLQERVFLVKFVRSRRPRTASCALAFVNMLLRLERILRRGPHRNPGPGDDDGQRSRSSSSAQLRCRFELRGPHYLLPPGARRSAGRLPGHAGGAARVRGSAGCARCLGSPAARLGPRAGTSRHRAIFAFRWVLFVFRWVVFVYRWERRPDRRA
binding: no binding

Source: US6407062
